According to publication PMC10687260, “1,3-Diphenylureido hydroxamate as a promising scaffold for generation of potent antimalarial histone deacetylase inhibitors” (Scientific Reports, 2023):
Where two headings read alike, the source gives them in different places.

Tests used:
[1] = test system: HepG2 cells; experiment: Cytotoxicity in human HepG2 cells (WST-1); type: cell-based; conditions: read-out: IC50 HepG2, 48 h, listed as SAHA
Protocol: Cytotoxicity in human HepG2 cells.[47] […] Cytotoxic effects of compounds were assessed using the cell proliferation reagent WST-1 (Roche; CELLPRO-RO) in a 96-well plate-based screening assay. HepG2 cells were seeded at 10^4 cells/well (100 μL) in 96-well flat-bottom plates (Sarstedt) the night before the experiment to allow attachment of cells. The next day, two-fold serial dilutions of compounds were prepared in fresh medium in an extra plate, and the medium of cells was replaced by the medium containing the compound dilutions. Non-treated cells (max. proliferation), cells treated with the maximal solvent concentration (DMSO; solvent control), and medium with the maximal compound concentration (native absorbance) used as controls. […] Subsequently, 10 μL WST-1 was added to each well and plates were incubated for additional 4 h under standard conditions. WST-1 is a tetrazolium salt and is metabolised by the mitochondrial succinate-tetrazolium-reductase system of living cells and forms formazan, whose absorbance was measured at 450 nm. Absorbance at 630 nm was assessed to check for protein and precipitation background. Both measurements were acquired via the CLARIOstar (V5.20) and MARS software, manually scaled to 0–100%, and plotted with GraphPad Prism (version 9.5.2 for Windows, GraphPad Software, La Jolla California USA).

[2] = test system: P. falciparum Dd2; experiment: Antiplasmodial SYBR Green I proliferation assay, P. falciparum Dd2; type: cell-based; conditions: Plasmodium falciparum, DD2, read-out: IC50 P. falciparum Dd2
Excerpt: (§1) Antiplasmodial activity against P. falciparum 3D7 (A, C and E) and P. falciparum Dd2 (B, D, F). […] Curves were plotted using non-linear regression based on means from three independent experiments measured in triplicate. Error bars indicate standard deviation, whose values are provided in the respective table.
(§2) Plasmodium falciparum culture and antiplasmodial activity. […] Development, parasitaemia, and morphology of parasites were monitored by light microscopy of thin blood smears stained according to the Romanowsky method (Panótico Rápido staining kit; Laborclin, Pinhais, Paraná, Brazil). […] Fresh 0^+ blood was generously provided by “Hospital Novo Atibaia” (Atibaia, SP, Brazil), and approved by the ethics committee at ICB-USP. […] Parasite proliferation was measured by the DNA load via fluorescence, using 100 μL of a lysis buffer with SYBR Green I (0.02% v/v) and incubated for 1 h at room temperature in the dark. […] Focal and gain adjustment was performed using the non-treated controls (highest expected fluorescence signal). […] Non-treated parasites, the highest solvent concentration on parasites, CQ on parasites, and the highest drug concentration in the medium were used as controls for maximal growth, solvent control, positive biological control, and native drug fluorescence, respectively.

[3] = test system: P. falciparum 3D7; experiment: Antiplasmodial SYBR Green I proliferation assay, P. falciparum 3D7; type: cell-based, Plasmodium falciparum; conditions: values in brackets 95% confidence intervals
Excerpt: as §1, §2

SMILES: O=C(CCCCCCC(=O)Nc1ccccc1)NO [Vorinostat (SAHA, 1), Vorinostat, reference compound]
- IC50 [1]: 96800 nM
- IC50 [2]: 540 nM
- IC50 ([3]; Plasmodium falciparum, 3D7, 96 h, read-out: IC50 Pf3D7, 96 h): 420 nM
- IC50 ([3]; read-out: IC50 Pf3D7, 96 h): 360 nM
